Assay results: publication PMC10163288
The other results are listed elsewhere or left out.

B1: il2ra_site1_2b5i_sap_12_mot_HHH_b2_02510_000000222_0001_42_55_H_._ea9dbf872bd896a6772730c64f198f4a_0001_0001_0000400032_0000001_0_0001_af2pred_dldesign_0_af2pre … (protein)
chain: SSSSSAGRELRRLVREADRLFKAGKPEEAKALLEKALELAEKLGATLWVKFIKLALKQIESSSSS
B2: il2ra_site2_3nfp_sap_16_mot_HHH_b1_08097_000000036_0001_22_39_H_._HHH_b1_03703_0001_0000100004_0000001_0_0001 (protein)
chain: SSSSDKSEEYLRIALELLEEAQKAGDEEVARSIAHVAKIAAESLNDEEIEKELEEILEELSSSSS
B3: il2ra_site1_1z92_normal_mot_HHH_b2_04090_000000052_0001_1_16_H_._a0b4aa5fea5d48080b95578646bcd77a_0001_1_af2_0001_0000100006_0000001_0_af2pred_0001_af2pred_1 (protein)
chain: GKEEALELLKELAEKLNDPALRFLAEDLEKLLKRDPEAARRVLRKSVKVAGNPVLQEVLELLESD
B4: il2ra_site2_2erj_sap_24_mot_HHH_b1_00821_000000191_0001_1_20_H_._HHH_b1_05660_0001_0000900016_0000001_0_0001 (protein)
chain: SSSSSDAIEDVARNLEKLAREKGNEEAEEVVEEALEAFRKGILSLRQVFELLNRAMQLLSSSSSS
B5: il2ra_site2_2erj_sap_27_mot_6c2800a769814540b5b47941e710ff28_0001_000000197_0001_35_49_H_._HHH_b1_00672_0001_0000100006_0000001_0_0001 (protein)
chain: SSSSDWLHRLYELANRIMHLIANGDPEEARRLLEELEELAEEADSPAAEKVVENLEKKIESSSSS
B6: il2ra_site2_3nfp_normal_mot_HHH_b1_05392_000000081_0001_38_55_H_._ems_4hM_3012_0002_af2_0001_0000100004_0000001_0 (protein)
chain: DEEEELEKKAEKAAKKQDPELANEVVRLALDNPEAWEELRRVLEEKNNLELLYELNLRFYEERYS
B7: il2ra_site1_1z92_normal_mot_6335285afc518479a1c42dd74dc897f1_0001_1_000000127_0001_16_32_H_._0c3bf8cb9d93094680b22e24baf1e485_0001_0001_0000200018_0000001_0 (protein)
chain: SVLELIKEILEELGNPDLAKFVERAIERYRKLGVPPETIVKALELIARKHGDPDLLEAIELAEER
B8: il2ra_site1_3nfp_normal_mot_HHH_b2_01680_af2_000000278_0001_1_15_H_._HHH_b2_04095_af2_0001_0000100003_0000001_0 (protein)
chain: SSSSTEERKEVERIFRELFKAAREGDEEKAEELAEELEELARERGDKLYLRSAEAALKLLSSSSS
B9: il2ra_site2_2erj_normal_mot_HHH_b2_01275_af2_000000073_0001_23_39_H_._HHH_b2_00463_0001_0000200014_0000001_0 (protein)
chain: SSSSSDKEEVEEEVEEILRRAEETDDLREAYKLAARALRLASELGDPELLELVAKVLERLSSSSS
B10: il2ra_site2_3nfp_normal_mot_HHH_b1_05627_af2_000000038_0001_43_56_H_._HHH_b1_05526_af2_0001_0000100005_0000001_0 (protein)
chain: SSSSDKAEEYVRAAMEAARYALEDGNPEVARRSLELARQLAESLGNEELREEVEELLQELSSSSS
B11: il2ra_site2_2erj_normal_mot_HHH_b1_06554_000000001_0001_44_57_H_._HHH_b1_02402_0001_0000200030_0000001_0_af2pred_0001_af2pred (protein)
chain: SSSSSAERIYELAEEADELALEGDDEEARRVVEEAEELARESNSRSARRALEIALKSIELLSSSS
B12: il2ra_site2_3nfp_normal_mot_HHH_b1_00660_af2_000000090_0001_40_57_H_._HHH_b1_00725_af2_0001_0000100011_0000001_0_af2pred_0001_af2pred (protein)
chain: SSSSDEFLEEIEREVRELIEEGDQEEAERVLKRAAHEVSERRNHEEFAIVTLLLELLERFFSSSS
B13: il2ra_site2_2erj_normal_mot_HHH_b2_03029_000000035_0001_22_38_H_._c19e5fdadaa67d7d98d76bf2a1bb890a_0001_0001_0000600015_0000001_0_1_af2pred_0001_af2pred (protein)
chain: DEEVAELSRLAFELGDELLFRVILELLERIEKGDPEAEELVQELLELLRRGDPEEVERLAREILN
B14: il2ra_site2_3nfp_sap_24_mot_HHH_b1_04960_000000149_0001_23_39_H_._HHH_b2_08127_0001_0000400037_0000001_0_0001 (protein)
chain: SSSSDEDERRVEELLEEARHIPDPEEVRKLLAEAVKIAYENNNSELFFEIAEVAFELIQRSSSSS
B15: il2ra_site1_2b5i_sap_17_mot_HHH_b1_05608_000000027_0001_1_14_H_._HHH_b2_02617_0001_0000200017_0000001_0_0001 (protein)
chain: SSSSDHELTHAAVRIVWRLMWELNLSREEAKLLNRLAAELVERGVSPEELEEILREYAEEISSSS
B16: il2ra_site1_1z92_normal_mot_HHH_b1_02914_000000124_0001_22_39_H_._HHH_b1_08512_0001_0000300015_0000001_0 (protein)
chain: SSSSDEAVEFAFRMAEAAFKSNDEERLEFLIEYLRLALENTGDPRIEELLRQVEELLEELKSSSS
B17: il2ra_site1_2b5i_normal_mot_0e5a94e4a5addaac739760efb25f0f5d_0001_000000289_0001_18_32_H_._ems_p1-16H-GBL-16H-GABBL-15H_0053_0001_0001_0002_af2_0001_0000100002_ … (protein)
chain: SSSSSSEIEKEATELHEKANAAGNKEALKLTITALYRYKTGELTEEEARKLLEEARKLLESSSSS
B18: il2ra_site2_3nfp_normal_mot_HHH_b2_05281_000000198_0001_39_56_H_._HHH_b2_06744_0001_0000200015_0000001_0 (protein)
chain: SSSSSEEEELERLLQEAKRLIEEGNEEEARKLLSRAAALAFRLGDQEVFYELAELALLLASSSSS

Each binder was assayed against il2ra, P01589 (assay: yeast display titration).

Apparent Kd, inactive:
B1 no binding seen, B2 no binding seen, B3 no binding seen, B4 no binding seen, B5 no binding seen, B6 no binding seen, B7 no binding seen, B8 no binding seen, B9 no binding seen, B10 no binding seen, B11 no binding seen, B12 no binding seen, B13 no binding seen, B14 no binding seen, B15 no binding seen, B16 no binding seen, B17 no binding seen, B18 no binding seen
